This is an account of results in PubChem BioAssay AID445 (National Center for Advancing Translational Sciences (NCATS), 2006).

This is one part of the list. Further columns of the screen follow, without active or inactive calls. Compounds called inactive in the main read-out are mostly missing here. Words in brackets tell the shape of the fitted curve; partial curves, single points and poor fits give uncertain potencies.

This test can be described thus: IkB Signaling. The settings on record: ABC-DLBCL IkBa-CBG/CBR dual luciferase ratio (green luciferase fused to IkBa over red control in OCI-Ly3 lymphoma cells), 4 h; measured here: control luc red channel unless noted. The method, boiled down:
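Luminescence ratio of IκBα-fused green versus native red beetle luciferase in OCI-Ly3 cells, 4 h post-doxycycline with compound; red signal alone, scaled from basal (0%) to zero light (-100%), flagged nonspecific or cytotoxic effects.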
In the case of `COc1ccc(OCC(O)Cn2c(=N)n(Cc3ccccc3)c3ccccc32)cc1` (stereo not drawn), the AC50 (commonly the concentration giving half of the maximal activity seen) was 15.8 µM [falling, partial curve].

On to `Cc1ccc(NC(=O)CSc2nc(C)c(Cc3ccccc3)c(=O)[nH]2)cc1`, for which the AC50 is 25.1 µM [falling, single point]. To `O=C(COc1ccc2c3c(c(=O)oc2c1)CCC3)NC1CCCCC1` belongs 6.31 µM [rising, single point]; to `Cn1c(SCC(=O)NCc2ccc3c(c2)OCO3)nnc1-c1cc2ccccc2cc1O`, 25.1 µM [falling, partial curve]; to `O=C(Nc1ccccc1F)c1nc(S(=O)(=O)Cc2ccccc2F)ncc1Cl`, 7.94 µM [falling, full curve]. As for `CCN(C(=O)c1noc2c1COc1ccc(C)cc1-2)c1cccc(C)c1`, the AC50 was 0.251 µM [falling, full curve]. Consider `Clc1cccc(-n2ncc3c(NC4CCCCC4)ncnc32)c1`, for which the AC50 is 25.1 µM [falling, partial curve, poor fit]. For the molecule `O=C(COc1ccc(Cl)cc1)NCc1nnc(SCC(=O)NCc2ccc3c(c2)OCO3)o1`, the AC50 is 7.94 µM [falling, partial curve].

Regarding `Cc1c(C(=O)Nc2ccc3c(c2)OCCO3)sc2nc(-c3ccccc3)cn12`, the AC50 was 3.16 µM [falling, full curve]. Consider `CC(C)(C)OC(=O)N1CCC(c2c(C(=O)NCCN3CCC(Cc4ccccc4)CC3)cnn2-c2cccc(Cl)c2)CC1`, for which the AC50 was 39.8 µM [falling, single point]. Consider `O=C(NCc1ccc(Cl)cc1)C(=O)NCC(c1cccs1)S(=O)(=O)c1ccc(Cl)cc1` (stereo not drawn), for which the AC50 was 7.94 µM [falling, partial curve]. `CCOC(=O)C1CCN(C(=O)c2cc3ccc4cccnc4c3[nH]2)CC1`: the AC50 is 5.01 µM [falling, partial curve].

As to `COc1ccccc1CNC(=O)c1ccccc1NC(=O)c1nsc2ccccc12`, the AC50 was 31.6 µM [falling, partial curve]. For the molecule `CCOC(=O)c1[nH]c2ccccc2c1NC(=O)c1ccccc1OCC`, the AC50 was 20 µM [falling, single point]. On to `O=C(Nc1ccc2c(c1)CCCN2C(=O)c1cccs1)c1cccc(C(F)(F)F)c1`, for which the AC50 was 31.6 µM [falling, partial curve]. For `CCCCN1CC(c2nc3ccccc3n2CCCCOc2ccccc2C)CC1=O` (stereo not drawn), the AC50 is 0.794 µM [falling, full curve].

Take `CCCN(Cc1cccs1)C(=O)Nc1cc(C)ccc1OC`: the AC50 was 15.8 µM [falling, partial curve]. Under `O=C(c1ccc2c(c1)N(Cc1ccc(Cl)cc1)C(=O)c1ccccc1S2(=O)=O)N1CCCCCC1` stands 15.8 µM [falling, partial curve].
